Results are given in words; binding and its absence hold for the method and conditions named.
How the values were obtained:
[1] = target: alkaline phosphatase from Sphingomonas sp. strain BSAR-1 (SPAP) (Sphingomonas sp. strain BSAR-1) (UniProt A1YYW7); assay: SEC; Superdex 200 10/300 GL, 20 mM Tris pH 8.0, 150 mM NaCl, 0.5 ml per minute; standards cytochrome-c, carbonic anhydrase, bovine serum albumin; both purified
[2] = target: alkaline phosphatase from Sphingomonas sp. strain BSAR-1 (SPAP) (Sphingomonas sp. strain BSAR-1) (UniProt A1YYW7); assay: crystal structure; native SPAP crystals, space group P4(1)2(1)2, one molecule per asymmetric unit, dimer seen through crystal contacts; grown at 298 K in 1.6 M ammonium sulfate, 10% dioxane, 0.1 M MES pH 6.5; both purified

binding [1]: no binding | binding [2]: no binding
B1: alkaline phosphatase from Sphingomonas sp. strain BSAR-1 (SPAP) (enzyme, UniProt A1YYW7 20-559)
chain: QSPAPAAAPAPAARSIAATPPKLIVAISVDQFSADLFSEYRQYYTGGLKRLTSEGAVFPRGYQSHAATETCPGHSTILTGSRPSRTGIIANNWFDLDAKREDKNLYCAEDESQPGSSSDKYEASPLHLKVPTLGGRMKAANPATRVVSVAGKDRAAIMMGGATADQVWWLGGPQGYVSYKGVAPTPLVTQVNQAFAQRLAQPNPGFELPAQCVSKDFPVQAGNRTVGTGRFARDAGDYKGFRISPEQDAMTLAFAAAAIENMQLGKQAQTDIISIGLSATDYVGHTFGTEGTESCIQVDRLDTELGAFFDKLDKDGIDYVVVLTADHGGHDLPERHRMNAMPMEQRVDMALTPKALNATIAEKAGLPGKKVIWSDGPSGDIYYDKGLTAAQRARVETEALKYLRAHPQVQTVFTKAEIAATPSPSGPPESWSLIQEARASFYPSRSGDLLLLLKPRVMSIPEQAVMGSVATHGSPWDTDRRVPILFWRKGMQHFEQPLGVETVDILPSLAALIKLPVPKDQIDGRCLDLVAGKDDSCAGQ

— article PMC3145672, “X-Ray Structure Reveals a New Class and Provides Insight into Evolution of Alkaline Phosphatases” (PLoS ONE, 2011)
